PubChem BioAssay AID743454, Peter MacCallum Cancer Centre | 2014

Screen: 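Search for knock-downs that restore vorinostat killing in resistant colon cancer cells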 (primary screen)
System: human HCT116-VR colon cancer cells, selected for vorinostat resistance
Reagent: siRNA pool against human genes, 40 nM siRNA pool
Duration: vorinostat for 24 h, read-out about 72 h after transfection
Conditions: vorinostat at 2.5 µM final
Measured: 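Cell viability by CellTiter-Fluor and caspase 3/7 activity by luminescence, each scaled to mock wells per plate, duplicates averaged, then robust z-scored over all plates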
Reading the numbers: viability robust z-score: higher = more viable cells than screen typical; caspase robust z-score: higher = more caspase 3/7 activity than screen typical
Active means: 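a knock-down is a hit when classed RV1 or RV2 for lowered viability, or CA1 or CA2 for caspase activation; those lethal without drug were dropped; hits were retested singly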
This is a random part of about 18,000 reagents tested. 450 of all reagents (2.5%) count as active. 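Single biological run; no consistent viability z cut-off exists, so the class columns, not z-scores, define the calls.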

target gene	viability hit class	caspase hit class	viability robust z-score	caspase robust z-score	call
STK35	no change	no change	-1.44	2.45	inactive
NCR2	no change	no change	0.56	-0.1	inactive
UNCX	no change	no change	-0.13	1.99	inactive
KIF14	no change	no change	-1.14	2.06	inactive
TM9SF1	no change	no change	0.08	0.71	inactive
DMRT1	no change	no change	-1.09	0.15	inactive
GPX4	no change	CA2 (caspase activation)	-0.44	6.26	active
DIS3L2	no change	no change	1.56	-0.51	inactive
BMPR2	no change	no change	1.86	-0.4	inactive
SCRT1	no change	no change	-1.99	3.14	inactive
TOMM7	no change	no change	-0.16	-0.78	inactive
SYNPO	no change	no change	-1.25	1.25	inactive
STAG3L2	no change	no change	0.46	-0.82	inactive
LEFTY1	no change	no change	-0.48	-0.72	inactive
OR5K4	no change	no change	-0.08	-1.17	inactive
FLI1	no change	no change	0.73	-0.08	inactive
PRR19	no change	no change	0.47	-0.57	inactive
GPLD1	no change	no change	0.19	-0.01	inactive
FAM228A	no change	no change	-2	2.38	inactive
C1orf87	no change	no change	0.47	1.28	inactive
PAFAH1B3	no change	no change	1.38	-0.08	inactive
ZNF461	no change	no change	-1.05	-0.93	inactive
DYRK1B	no change	no change	-0.74	1.43	inactive
EML1	no change	no change	0.6	-1.12	inactive

Records above whose target name starts with T or t:
target gene	viability hit class	caspase hit class	viability robust z-score	caspase robust z-score	call
TM9SF1	no change	no change	0.08	0.71	inactive
TOMM7	no change	no change	-0.16	-0.78	inactive

Continued:
target gene	viability hit class	caspase hit class	viability robust z-score	caspase robust z-score	call
SCGB2A2	no change	no change	0.11	0.66	inactive
KRTAP9-3	no change	no change	0.72	-0.84	inactive
ACP4	no change	no change	0.48	0.46	inactive
ACER1	no change	no change	-1.32	1.74	inactive
UBE2N	no change	no change	-1.75	2.67	inactive
SPRYD7	no change	no change	-0.98	0.72	inactive
MRPS27	no change	no change	1.06	1.48	inactive
CFAP36	no change	no change	-0.69	0.2	inactive
LIMS1	no change	no change	0.18	-0.44	inactive
DEAF1	no change	no change	-1.08	-0.25	inactive
FOXJ1	no change	no change	2.02	-0.14	inactive
TRMT44	no change	no change	-0.34	-0.4	inactive
ABHD14A	no change	no change	-0.11	0.68	inactive
FUBP1	no change	no change	0.24	-0.16	inactive
XRCC1	no change	no change	0.4	1.66	inactive
